Patent US8471061B2 (priority 2004, dated 2013)
Like-named read-outs stand apart in the source and are kept apart here. This continues a long series; more values of the same kind are listed elsewhere.

Tested on: female rats (Sprague-Dawley CD species)
Details: 300 mg/kg oral, per animal
Method: This test was carried out in accordance with the OECD Guideline No. 423 “Acute Oral Toxicity-Acute Toxicity Grading Method” (adopted on Dec. 17, 2001). Fasted female rats (Sprague-Dawley CD species) of 3 animals per group were treated with 5-aminolevulinic acid phosphate at a dose of 300 mg per kg body weight. In addition, other fasted female rats of two or more groups were treated at a dose of 2000 mg per kg body weight. They were observed after the administration continuously for 2 weeks.

Measured: Dead animals

NCC(=O)CCC(=O)O.O=P(O)(O)O [5-aminolevulinic acid phosphate, 5-aminolevulinic Acid Phosphate]
0: 0.5 hour after administration | 1 hour after administration | 2 hour after administration | 4 hour after administration | day 1 after administration | day 2 after administration | day 3 after administration | day 4 after administration | day 5 after administration | day 6 after administration | day 7 after administration | day 8 after administration | day 9 after administration | day 10 after administration | day 11 after administration | day 12 after administration | day 13 after administration | day 14 after administration
